Results taken from a protein production outcome set (Wang et al. 2014).

Assay: label from the status in PepcDB records

Row | Sequence | protein production
1 | TMASGAPSFPFSRASGPEPPAEFAKLRATNPVSQVKLFDGSLAWLVTKHKDVCFVATSEKLSKVRTRQGFPELSASGKQAAKAKPTFVDMDPPEHMHQRSMVEPTFTPEAVKNLQPYIQRTVDDLLEQMKQKGCANGPVDLVKEFALPVPSYIIYTLLGVPFNDLEYLTQQNAIRTNGSSTAREASAANQELLDYLAILVEQRLVEPKDDIISKLCTEQVKPGNIDKSDAVQIAFLLLVAGNATMVNMIALGVATLAQHPDQLAQLKANPSLAPQFVEELCRYHTASALAIKRTAKEDVMIGDKLVRANEGIIASNQSANRDEEVFENPDEFNMNRKWPPQDPLGFGFGDHRCIAEHLAKAELTTVFSTLYQKFPDLKVAVPLGKINYTPLNRDVGIVDLPVIF | not failed
2 | MVFQAPGVEGQNQEAMGGRDSQTEICPHQVMKRVRTEQVQVAVSCYLKRRQYVDSEGPLKQGLRLSQTPEEMAANLTVQSESGCANAVSAAPCQAEPQQYEVQFGRLRNFLTDSDSQYSHEVMPLLYPLFVYLHLNLVQSGPKSTVESFYSRFHGMFLQNASQKDIIEQLQTTQTIQDILSNFQLRAFLDNKYVVRLQEDSYNYLIRYLQSDNNTALCKVLAVHIHLDVQPAKRTDYQLYASGGSSRSESSSLEPPDVPNPILQNEAALEVLQESIKRVKDGPPSLTTMCFYAFYNTEQLLNTAEISSDSKLLAPGFDNSWIKLWSLRSKKLKSEPHRVDTSRVRLACDTLEEEESEDDDVGTEMKILRGHCGPVYSTRFLADSSGLLSCSEDMSIRYWDLESFTNTVLYQGHAYPVWDVDISPYILYFASGSHDRTARLWSFDRTYPLRIYAGHLADVDCVKFHPNSNYLATGSTDKTVRLWSAQQGNSVRLFTGHRGPVLSLSFSPNGKYLASAGEDQWLKLWDLASGTLLKNXEATRTASPVWPLARTAVXLLLPPWRTLYASGTSEARAATHQLTALLGSLWACTLGRXATSXVYSSWPATSSXXLESHKRIKNI | failed
3 | MATRVLSMSARLGPVPQPPAPQDEPVFAQLKPVLGAANPARDAALFPGEELKHAHHRPQAQPAPAQAPQPAQPPATGPRLPPEDLVQTRCEMEKYLTPQLPPVPIIPEHKKYRRDSASVVDQFFTDTEGLPYSINMNVFLPDITHLRTGLYKSQRPCVTHIKTEPVAIFSHQSETTAPPPAPTQALPEFTSIFSSHQTAAPEVNNIFIKQELPTPDLHLSVPTQQGHLYQLLNTPDLDMPSSTNQTAAMDTLNVSMSAAMAGLNTHTSAVPQTAVKQFQGMPPCTYTMPSQFLPQQATYFPPSPPSSEPGSPDRQAEMLQNLTPPPSYAATIASKLAIHNPNLPTTLPVNSQNIQPVRYNRRSNPDLEKRRIHYCDYPGCTKVYTKSSHLKAHLRTHTGEKPYKCTWEGCDWRFARSDELTRHYRKHTGAKPFQCGVCNRSFSRSDHLALHMKRHQN | not failed
4 | MKKSKFSDSQIIEALKRVEAGLSVPKLCRELGISTAAFYKWRAKHGGLAVSMMARMKELEAENARLNEDARGGAPEGRHSSGGDFKKVVRPSHLRATARRAVSGHRVSIRLGCAAFQVSGTCYRHSAKRNAGNEEIADWLMRLTDNHRNWGFGLCFLYLRNVKGFGWNHKRVCRICRELELNLRIKPRKRLKRDKPEPLTAPTRINQVWSMDFMHDQRADGRKFRLFNVIDDFNRASLGMEVDFSPPSERVTRALEQVMEWRGRPRVIRCDNGPENISAKVQARAARQGIRIECIQPGNPQQNAHVERFNRTVRHEWLSQYDWESLDEVQAFATRWMWTYNHERPNMALGGITPKQRLARAA | failed
5 | MEKYNPHAIEAKWQRFWEEKGFMKAKDLPGGRGKQYVLVMFPYPSGDLHMGHLKNYTMGDVLARFRRMQGYEVLHPMGWDAFGLPAENAALKFGVHPKDWTYANIRQAKESLRLMGILYDWDREVTTCEPEYYRWNQWIFLKMWEKGLAYRAKGLVNWCPKCQTVLANEQVVEGRCWRHEDTPVEKRELEQWYLRITAYAERLLKDLEGLNWPEKVKAMQRAWIGRSEGAEILFPVEGKEVRIPVFTTRPDTLFGATFLVLAPEHPLTLELAAPEKREEVLAYVEAAKRKTEIERQAEGREKTGVFLGAYALNPATGERIPIWTADYVLFGYGTGAIMAVPAHDQRDYEFARKFGLPIKKVIERPGEPLPEPLERAYEEPGIMVNSGPFDGTESEEGKRKVIAWLEEKGLGKGRVTYRLRDWLISRQRYWGTPIPMVHCEACGVVPVPEEELPVLLPDLKDVEDIRPKGKSPLEAHPEFYETTCPKCGGPAKRDTDTMDTFFDSSWYYLRYTDPHNDRLPFDPEKANAWMPVDQYIGGVEHAVLHLLYSRFFTKFLHDLGMVKVEEPFQGLFTQGMVLAWTDFGPVEVEGSVVRLPEPTRIRLEIPESALSLEDVRKMGAELRPHEDGTLHLWKPAVMSKSKGNGVMVGPFVKEQGADIARITILFAAPPENEMVWTEEGVQGAWRFLNRIYRRVAEDREALLETSGVFQAEALEGKDRELYGKLHETLKKVTEDLEALRFNTAIAALMEFLNALYEYRKDRPVTPVYRTAIRYYLQMLFPFAPHLAEELWHWFWPDSLFEAGWPELDEKALEKDVVEVAVQVNGRVRGTIHIPKDAPLEVARAEALKVRNVRAHLEGKEVVKEIYVPGKILNLVVRG | not failed
6 | MLDIRGVRKSFRKPDGSELLVLDGIDFTLGEGEIIGLLGRSGSGKSTLLRSIAGLTPPSAGSVIYHGNEVTAPPPGIAMVFQGFALFPWLTVLENVQLGLEALGLSTGELHRRAIEAIDLIGLDGFESAYPRELSGGMRQRVGFARALVVHPNILLMDEPFSALDVLTAETLRTDFLDLWSEGQLPIKGVILVTHNIEEAVLMCDRILIFGSNPGRILNEIKVELPHPRARLDPAFRDLVERIYVEMTTRSASVPAGRRTEYFPGTGIGTILPHVSSNSLSGLLEAVAAAPYNGEADLPVIASSLHMEIDELFPVAETLQMLRFAEVAGGDIRLTTEGRQFADFDTDRRKHLFARHLLTYVALAAHIRRVLDERPVHQAPWSRFADELEDYMPPAAAVQTLRTIIALGRYAEIFSYDDEKQVFSLDNPLEHHHHHH | failed
7 | MTDRLPVTVLSGFLGAGKSTLLNHILRNRDHLRVAVIVNDMSEINIDGSEVQRDVSLNRAEEKLVEMSNGCICCTLREDLLEEVGKLARDGRFDYLLIESTGISEPLPVAETFTFRDESGQSLADIARLDTMVTVVDGMNFLLDYQAAHSLASRGETLGEDDERSISDLLIEQVEFADVILVSKIDLISSDQRQELLAILKSLNAQAEIVPMVMGQVPLAKILDTGRFDFERAAQAPGWLRELRGEHVPETEEYGIASTAYRARRPFHPQRFFDFINRPWVNGKLLRSKGFFWLASKYQEAGSWSQAGGLMRHGFAGRWWRFVPKQHWPQDEEGTAAIMHNWTAATGDCRQELVFIGQNIDFTRLCAELDLCLLDDDEMALGVEGWSLLNDPFGPWHDEEAALEHHHHHH | not failed
